Measurements as given in the supplement of paper PMC5355238.
Counter-ions that a name gives are not always drawn. Some of the results follow. Repeats are few or missing, and single values can be far off.

Test system: Reh
Assay: S-phase gammaH2AX median, Z-score vs plate median (drug alone); higher = more S-phase DNA damage
Details: MK1775 concentration 0 nM; 10 µM; 4 h

Row | Structure (SMILES) | S-phase gammaH2AX median (Z-score)
1 | N=C1Sc2ccccc2C2=NCCCN12 | -0.0118
2 | CN(C)CCN(Cc1cccs1)c1ccccn1 [Methapyrilene hydrochloride] | 0.151
3 | NC(=O)N1c2ccccc2C=Cc2ccccc21 [Carbamazepine] | -0.00971
4 | CCc1cccc(N(C)C(=N)Nc2cccc3ccccc23)c1 | 0.0155
5 | Nc1nc(F)nc2c1ncn2[C@@H]1O[C@H](CO)[C@@H](O)[C@@H]1O [Fludarabine (Fludara)] | 3.83
6 | O=C(NCCS(=O)(=O)c1ccc(C(F)(F)F)cn1)c1ccc(Cl)cc1 | 0.101
7 | CC(C)CC(=O)Nc1n[nH]c2c1CN(C(=O)C1CCN(C)CC1)C2(C)C | -0.123
8 | Nc1nc(Cl)nc2c1ncn2[C@@H]1O[C@H](CO)[C@@H](O)[C@@H]1F [Clofarabine] | 6.75
9 | CC(N)=O [Acetamide] | 0.0563
10 | CN1CC[C@H](c2c(O)cc(O)c3c(=O)cc(-c4ccccc4Cl)oc23)[C@H](O)C1 [Flavopiridol hydrochloride] | 0.012
11 | CN(C)Cc1c(C(=O)NCCOc2ccc(C(=O)NO)cc2)oc2ccccc12 | 0.101
12 | O=C1CN2Cc3c(ccc(Cl)c3Cl)N=C2N1 [Anagrelide] | -0.00271
13 | O=C1CN2Cc3c(ccc(Cl)c3Cl)N=C2N1 [Anagrelide hydrochloride] | -0.0684
14 | FC(F)(F)c1ccccc1-n1ccnc1 [1-[2-(Trifluoromethyl)phenyl]imidazole] | -0.447
15 | CCCCOC(=O)NS(=O)(=O)c1sc(CC(C)C)cc1-c1ccc(Cn2c(CC)nc3c(C)cc(C)nc32)cc1 | -0.205
16 | CO/N=C(\C(=O)N[C@@H]1C(=O)N2C(C(=O)O)=C(CSc3nc(=O)c(O)nn3C)CS[C@H]12)c1csc(N)n1 [Ceftriaxone sodium] | 0.068
17 | CCCCN1CCC(COC(=O)c2cc(Cl)c(N)c3c2OCCO3)CC1 | 0.0133
18 | COc1cccc(NC(=O)/C=C/c2ccc(Cl)cc2)c1 | 0
19 | Oc1ccccc1O [Pyrocatechol] | -0.126
20 | CC(C)(C)NC[C@H](O)COc1nsnc1N1CCOCC1 [S(-)-Timolol maleate] | 0.0868
21 | C[C@]12CCC(=O)C=C1CC[C@@H]1[C@@H]2[C@@H](O)C[C@@]2(C)[C@H]1CC[C@]2(O)C(=O)COC(=O)CCC(=O)O [Hydrocortisone 21-hemisuccinate sodium] | 0.154
22 | Cc1ccc(C(=O)Nc2ccc(CN3CCN(C)CC3)c(C(F)(F)F)c2)cc1C#Cc1cnc2cccnn12 | -0.00193
23 | O=C1CCC(c2ccc(-n3ccnc3)cc2)=NN1 [Imazodan] | -0.135
24 | CCNC(=O)N1CCN(CCCC(c2ccc(F)cc2)c2ccc(F)cc2)CC1 [Amperozide hydrochloride] | -0.113

Part of the list above in another layout.
Row	Structure (SMILES)	S-phase gammaH2AX median (Z-score)
12	O=C1CN2Cc3c(ccc(Cl)c3Cl)N=C2N1 [Anagrelide]	-0.00271
13	O=C1CN2Cc3c(ccc(Cl)c3Cl)N=C2N1 [Anagrelide hydrochloride]	-0.0684
